Data taken from PMC9251929.

Chains of the proteins cited; added tags and fusions are not shown. Lines headed by an entry give the natural chain unless they say otherwise; changes in a name come on top.
UniProt A0A7U3QAH2: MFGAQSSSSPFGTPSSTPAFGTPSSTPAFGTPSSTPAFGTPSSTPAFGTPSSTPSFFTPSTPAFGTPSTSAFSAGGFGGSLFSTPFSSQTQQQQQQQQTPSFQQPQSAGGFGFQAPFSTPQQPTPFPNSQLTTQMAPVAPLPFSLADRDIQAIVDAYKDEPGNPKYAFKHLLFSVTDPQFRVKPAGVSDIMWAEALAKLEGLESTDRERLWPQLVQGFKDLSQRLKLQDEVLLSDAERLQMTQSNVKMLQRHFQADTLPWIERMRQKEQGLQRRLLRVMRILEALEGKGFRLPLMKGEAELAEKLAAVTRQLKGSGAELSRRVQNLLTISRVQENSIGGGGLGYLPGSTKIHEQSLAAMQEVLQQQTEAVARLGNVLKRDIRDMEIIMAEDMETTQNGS

Target: MdNup62-NLUC (apple (Malus × domestica))
Assay: split reporter; luciferase (LUC) complementation experiment of MdNup62 and MdNup54 (Figure S1); constructs and host not told for this pair

- binding: binds
Substance: MdNup54 (from UniProt A0A7U3QAH2)

Results are given in words; binding and its absence hold for the method and conditions named. In cells and extracts the contact can be indirect. Binding calls can cover weak binding; strength is not graded here.
